Measurements published in PMC5496907.
No constants are given. Whether binding was seen depends on the method and setting. In cells and extracts the contact can be indirect. Some results given as binding are weak or reduced against the parent protein; the word gives no strength. Sequences can lack the tags named with a protein.

Target: HA-tagged full-length Cbl (UniProt P22681)
Experiment: co-IP; 293T cells co-transfected; whole cell lysates (1% Triton X-100 or 1% NP-40 lysis buffer) IPed with anti-HA affinity resin (HA-Cbl or HA-Cbl TKB domain as bait), Western blot

binding: binds weakly
B1: un-tagged GMRβ (GM-CSF receptor β subunit) (receptor, UniProt P32927 17-897)
chain: WERSLAGAEETIPLQTLRCYNDYTSHITCRWADTQDAQRLVNVTLIRRVNEDLLEPVSCDLSDDMPWSACPHPRCVPRRCVIPCQSFVVTDVDYFSFQPDRPLGTRLTVTLTQHVQPPEPRDLQISTDQDHFLLTWSVALGSPQSHWLSPGDLEFEVVYKRLQDSWEDAAILLSNTSQATLGPEHLMPSSTYVARVRTRLAPGSRLSGRPSKWSPEVCWDSQPGDEAQPQNLECFFDGAAVLSCSWEVRKEVASSVSFGLFYKPSPDAGEEECSPVLREGLGSLHTRHHCQIPVPDPATHGQYIVSVQPRRAEKHIKSSVNIQMAPPSLNVTKDGDSYSLRWETMKMRYEHIDHTFEIQYRKDTATWKDSKTETLQNAHSMALPALEPSTRYWARVRVRTSRTGYNGIWSEWSEARSWDTESVLPMWVLALIVIFLTIAVLLALRFCGIYGYRLRRKWEEKIPNPSKSHLFQNGSAELWPPGSMSAFTSGSPPHQGPWGSRFPELEGVFPVGFGDSEVSPLTIEDPKHVCDPPSGPDTTPAASDLPTEQPPSPQPGPPAASHTPEKQASSFDFNGPYLGPPHSRSLPDILGQPEPPQEGGSQKSPPPGSLEYLCLPAGGQVQLVPLAQAMGPGQAVEVERRPSQGAAGSPSLESGGGPAPPALGPRVGGQDQKDSPVAIPMSSGDTEDPGVASGYVSSADLVFTPNSGASSVSLVPSLGLPSDQTPSLCPGLASGPPGAPGPVKSGFEGYVELPPIEGRSPRSPRNNPVPPEAKSPVLNPGERPADVSPTSPQPEGLLVLQQVGDYCFLPGLGPGPLSLRSKPSSPGPGPEIKNLDQAFQVKKPPGQAVPQVPVIQLFKALKQQDYLSLPPWEVNKPGEVC
